# Measurements reported in article doi:10.1101/2025.04.16.649111.
# Chains of the proteins cited; added tags and fusions are not shown.
# UniProt P21707: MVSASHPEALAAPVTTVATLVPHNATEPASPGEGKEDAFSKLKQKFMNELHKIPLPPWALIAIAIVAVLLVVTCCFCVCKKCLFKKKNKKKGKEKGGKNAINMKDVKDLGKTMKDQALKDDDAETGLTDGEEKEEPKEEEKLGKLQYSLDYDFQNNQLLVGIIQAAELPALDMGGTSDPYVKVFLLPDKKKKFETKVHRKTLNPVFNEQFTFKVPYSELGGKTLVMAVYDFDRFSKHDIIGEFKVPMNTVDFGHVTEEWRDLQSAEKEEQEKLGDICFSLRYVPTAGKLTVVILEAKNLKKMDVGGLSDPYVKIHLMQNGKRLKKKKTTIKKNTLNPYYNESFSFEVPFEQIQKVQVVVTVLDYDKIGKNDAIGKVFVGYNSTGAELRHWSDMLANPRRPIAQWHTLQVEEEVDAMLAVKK
# These are yes or no findings as the source states them, for the method shown. Binding seen in cells or lysates may run through a third protein. Here binding means that the protein was enriched with, or labelled near, the bait; the list need not be complete.
# B1: ciliary neurotrophic factor receptor (Cntfr) (receptor, UniProt Q08406 23-342)
# chain: QKHSPQEAPHVQYERLGTDVTLPCGTASWDAAVTWRVNGTDLAPDLLNGSQLILRSLELGHSGLYACFHRDSWHLRHQVLLHVGLPPREPVLSCRSNTYPKGFYCSWHLSAPTYIPNTFNVTVLHGSKMMVCEKDPALKNRCHIRYMHLFSTIKYKVSISVSNALGHNTTAITFDEFTIVKPDPPENVVARPVPSNPRRLEVTWQTPSTWPDPESFPLKFFLRYRPLILDQWQHVELSNGTAHTITDAYAGKEYIIQVAAKDNEIGTWSDWSVAAHATPWTEEPRHLTTEAQAPETTTSTTSSLAPPPTTKICDPGELSS
# Biological target: endogenous Synaptotagmin 1 of primary hippocampal neurons (rat) (rat (endogenous in hippocampal neurons)) (UniProt P21707)
# Experiment: proximity labelling
binder,measurement,value
B1,binding,binds
